Hit rate of the full screen: of about 340,000 compounds, about 6,200 (1.8%) were called active. Inconclusive means that the source gave no clear call. Such entries were picked first, then a sample of the others. Calls come from the whole dose curve; as a rule, active = well fitted activation curve with a large enough effect; inconclusive = small, poorly fitted or top-dose-only effect; inactive = no such curve, though single readings can be large or run the other way. Where the call is inconclusive, the potency comes from a doubtful curve fit.
Assay: A quantitative high throughput screen for small molecules that induce DNA re-replication in SW480 colon adenocarcinoma cells. Note: nearly all actives have a fitted effect of over 55% in size.
Conditions: Hoechst DNA content imaging, 48 h; series mostly up to 46.1 µM
Procedure, shortened: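 Readout is total intensity of Hoechst-stained nuclei, excited at 405 nm and collected at 500-530 nm. Compound treatment lasted 48 hr at 37 C in 5% CO2 before staining.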
Potency is the fitted concentration of half-maximal effect.

Q: With `COc1ccc(OC)c(-c2csc(NC(=O)COC(=O)c3ccc(NC(=O)CC#N)cc3)n2)c1` as the compound, how does the Potency read?
A: inactive

Q: With `CCC1CCCCN1CCCNC(=O)c1ccc(/C=C2/Sc3ccccc3NC2=O)cc1` (stereo not drawn) as the compound, how does the Potency read?
A: inconclusive: 6.51 µM [activator, single point]

Q: With `COc1cccc(C(=O)NCC(c2cccnc2)N2CCN(c3ccccc3OC)CC2)c1` (stereo not drawn) as the compound, how does the Potency read?
A: inactive

Q: With `CN1C(=O)C2(c3ccccc31)N(C)CC(c1ccccn1)C21SC(=S)N(Cc2ccco2)C1=O` (stereo not drawn) as the compound, how does the Potency read?
A: inconclusive: 32.6 µM [activator, partial curve, poor fit]

Q: Which Potency does the source give for `Cc1noc(C)c1S(=O)(=O)N1CCN(C(c2ccccc2)c2ccc(Cl)cc2)CC1` (stereo not drawn) here?
A: inactive

Q: With `COc1cc(-c2nnc(-c3ccc(S(=O)(=O)c4ccccc4)cc3)o2)cc(OC)c1OC` as the compound, how does the Potency read?
A: inconclusive: 29.1 µM [activator, single point]

Q: With `O=C(/C=C/c1ccccc1)c1ccc2ccccc2c1` as the compound, how does the Potency read?
A: inactive

Q: Which Potency does the source give for `Cc1nnc(NC(=O)c2ccc(S(=O)(=O)N3CC(C)CC(C)C3)cc2)o1` (stereo not drawn) here?
A: inconclusive: 29.1 µM [activator, single point]

Q: Which Potency does the source give for `Cc1ccc(S(=O)(=O)NCCSc2ncccn2)cc1` here?
A: inactive

Q: Which Potency does the source give for `CCN(Cc1ccccc1)S(=O)(=O)c1ccc(C(=O)N(CCCN(C)C)c2nc3c(F)cccc3s2)cc1` here?
A: inconclusive: 23.1 µM [activator, single point]

Q: Which Potency does the source give for `CCOc1ccc(C(=O)CCC(=O)Nc2ccc(C)c(S(=O)(=O)N3CCCCC3)c2)cc1` here?
A: inconclusive: 23.1 µM [activator, single point]

Q: Which Potency does the source give for `CCCC12CN3CCN(CC(C3)/C1=N\NC(=O)c1ccc(C(C)(C)C)cc1)C2` here?
A: inactive

Q: For `C/C(=N\NC(=O)CCc1c[nH]c2ccccc12)c1cccc([N+](=O)[O-])c1`, which Potency is on record?
A: inactive

Q: With `N#Cc1ccsc1NC(=O)CCc1ccccc1` as the compound, how does the Potency read?
A: inconclusive: 18.4 µM [activator, single point]

Q: Which Potency does the source give for `CCN1CCN(c2cc(-c3ccccc3)nc3cc(-c4cccc(F)c4)nn23)CC1` here?
A: inconclusive: 20.6 µM [activator, single point]

Q: With `OC(CNCCNc1ncccc1C(F)(F)F)COc1ccc(F)cc1` (stereo not drawn) as the compound, how does the Potency read?
A: inactive

Q: For `Cc1cc(C)nc(NNC(=O)c2ccccc2O)n1`, which Potency is on record?
A: inconclusive: 0.0046 µM [activator, full curve, poor fit]

Q: Which Potency does the source give for `Cn1ncc2c(Nc3ccc(-c4ccccc4)cc3)ncnc21` here?
A: inconclusive: 23.1 µM [activator, single point]

Q: Which Potency does the source give for `CCOc1ccc(S(=O)(=O)NCCC(=O)N2CC(C)CC(C)C2)cc1` (stereo not drawn) here?
A: inconclusive: 6.51 µM [activator, partial curve, poor fit]

Q: Which Potency does the source give for `Cc1ccc(N(CC(=O)N2CCc3ccccc32)S(=O)(=O)c2cccs2)cc1` here?
A: inactive

Q: Which Potency does the source give for `Cc1cccc(/C=C2\Sc3ccc(C(=O)NCC4CCCO4)cc3N(C)C2=O)c1` (stereo not drawn) here?
A: inconclusive: 5.8 µM [activator, single point]

Q: With `Cc1ccc(OCc2cc(C(=O)NCc3cc(F)ccc3C)no2)cn1` as the compound, how does the Potency read?
A: inconclusive: 0.411 µM [activator, full curve, poor fit]

Q: With `CN(C)S(=O)(=O)c1ccc(N2CCCC2)c(C(=O)NC(c2ccccc2)c2ccccc2)c1` as the compound, how does the Potency read?
A: inconclusive: 5.17 µM [activator, single point]

Q: Which Potency does the source give for `CC(=O)c1cccc(S(=O)(=O)NC(C)C2CC3CCC2C3)c1` (stereo not drawn) here?
A: inconclusive: 29.1 µM [activator, single point]

Q: For `N#C/C(=C/c1ccc(-c2ccc([N+](=O)[O-])cc2)o1)C(=O)Nc1nc(-c2cccs2)cs1`, which Potency is on record?
A: inconclusive: 2.06 µM [activator, full curve]

Q: Which Potency does the source give for `COc1ccc(-n2c(C)c(C)c3c(NCCCN(C)C)ncnc32)cc1` here?
A: inactive

Q: For `CO/N=C/c1ccc(OC)c(Oc2nc(OC)cc(OC)n2)c1`, which Potency is on record?
A: active: 18.4 µM

Q: For `CC(C)(c1ccccc1)c1ccc(OCc2ccc(C(=O)O)o2)cc1`, which Potency is on record?
A: inactive

Q: For `COc1ccc(-n2cnc3cc(C(=O)NCC4CCCO4)ccc32)cc1` (stereo not drawn), which Potency is on record?
A: inconclusive: 29.1 µM [activator, single point]

Q: Which Potency does the source give for `CC(C)N1CCc2[nH]c(=S)[nH]c(=O)c2C1` here?
A: inactive

Q: With `CC(C)(C)c1ccc(CSc2nnc(-c3ccccn3)n2Cc2ccco2)cc1` as the compound, how does the Potency read?
A: inconclusive: 29.1 µM [activator, partial curve, poor fit]

Q: Which Potency does the source give for `CC(=O)Nc1ccc(NC(=O)c2ccccc2N(Cc2ccccc2)S(C)(=O)=O)cc1` here?
A: inconclusive: 16.4 µM [activator, single point]

Q: With `COc1cccc(C(=O)OCC(=O)N2CCc3ccccc32)c1OC` as the compound, how does the Potency read?
A: inconclusive: 18.4 µM [activator, partial curve, poor fit]

Q: With `CCN(CC)c1ccc(/C=C2/SC(=O)N(C(C)C)C2=O)o1` as the compound, how does the Potency read?
A: active: 5.17 µM

Q: With `O=C(/C=C/c1ccccc1Cl)NC1CCS(=O)(=O)C1` (stereo not drawn) as the compound, how does the Potency read?
A: inconclusive: 20.6 µM [activator, single point]

Q: With `CCOc1ccccc1NC(=S)N1CCN(c2ccc(O)cc2)CC1` as the compound, how does the Potency read?
A: inactive

Q: With `NS(=O)(=O)c1ccc(CCNC(=O)c2ccc(Cl)c(S(=O)(=O)N3CCCCCC3)c2)cc1` as the compound, how does the Potency read?
A: inactive

Q: For `COc1ccc(NC(=O)C(=O)Nc2cccc3cccnc23)cc1OC`, which Potency is on record?
A: inconclusive: 23.1 µM [activator, partial curve, poor fit]

Q: For `OCC1CCCN(C2CCN(Cc3nc(Cc4cccc(C(F)(F)F)c4)no3)CC2)C1` (stereo not drawn), which Potency is on record?
A: inconclusive: 29.1 µM [activator, partial curve, poor fit]

Q: Which Potency does the source give for `C/C(CC(=O)Nc1cc(Cl)ccc1Cl)=N\NC(=O)c1ccccc1Br` here?
A: inactive

Q: For `Oc1ccc2ccccc2c1CN1CCN(C/C=C/c2ccccc2)CC1`, which Potency is on record?
A: inconclusive: 29.1 µM [activator, single point]

Q: Which Potency does the source give for `CCOc1ccccc1N(CC(=O)Nc1cccc(OC)c1)S(=O)(=O)c1ccccc1` here?
A: inactive

Q: Which Potency does the source give for `Cc1ccc(-c2cccc(C3CC=CC4C3C(=O)N(Cc3ccccc3)C4c3cc(C)ccc3F)c2)cc1` (stereo not drawn) here?
A: inactive

Q: For `Clc1ccc(CN2CCN(c3ncccn3)CC2)c(Cl)c1`, which Potency is on record?
A: inconclusive: 4.61 µM [activator, partial curve, poor fit]

Q: For `Cc1cccc(NS(=O)(=O)c2ccc(OCC(=O)N3CCCC3)cc2)c1`, which Potency is on record?
A: inactive

Q: With `COc1ccc(-c2csc(NC(=O)C3COc4ccccc4O3)n2)cc1OC` (stereo not drawn) as the compound, how does the Potency read?
A: inactive

Q: For `Cc1c(F)cccc1NS(=O)(=O)c1ccc2c(c1)n(C)c(=O)c(=O)n2C`, which Potency is on record?
A: inconclusive: 0.103 µM [activator, full curve, poor fit]

Q: For `CC(C)(C)S(=O)(=O)c1cnc2c(-c3ccc(Cl)cc3)cnn2c1N`, which Potency is on record?
A: inactive

Q: For `Cc1cc(-c2cccs2)c2c(n1)sc1c(=O)[nH]c(=O)[nH]c12`, which Potency is on record?
A: inconclusive: 0.146 µM [activator, full curve, poor fit]

Q: Which Potency does the source give for `CCCOC(=O)c1ccc(-c2ccc(C=O)o2)cc1` here?
A: inactive

Q: For `CCOC(=O)N1CCC(N2Cc3cccc(C(=O)N4CCN(c5cccc(C)c5C)CC4)c3C2=O)CC1`, which Potency is on record?
A: inactive

Q: For `COc1ccc2c(-c3ccc(S(N)(=O)=O)cc3)c(-c3ccc(S(C)(=O)=O)cc3)sc2c1`, which Potency is on record?
A: inconclusive: 16.4 µM [activator, single point]

Q: For `COC(=O)C(C(=O)OC)c1ccc(-n2cccc2)cc1`, which Potency is on record?
A: inconclusive: 1.03 µM [activator, single point]

Q: Which Potency does the source give for `O=C(O)c1ccn2c(C(=O)c3ccccc3)c(-c3ccccc3)cc2c1` here?
A: inactive

Q: Which Potency does the source give for `Cc1cccc2cc(C#N)c(NCCNC(=O)NC3CCCCC3)nc12` here?
A: inactive

Q: For `CCCCOP(=O)(OCCCC)C1(NS(=O)(=O)c2ccccc2)C=CC(=O)c2ccccc21` (stereo not drawn), which Potency is on record?
A: inconclusive: 29.1 µM [activator, single point]

Q: With `COc1ccccc1N1CCN(C(=O)c2ccc3nc(-c4ccco4)c(-c4ccco4)nc3c2)CC1` as the compound, how does the Potency read?
A: inconclusive: 18.4 µM [activator, single point]

Q: With `Cc1nc(CS(=O)(=O)c2ccccc2)cc(N2CCOCC2)n1` as the compound, how does the Potency read?
A: inconclusive: 29.1 µM [activator, single point]

Q: Which Potency does the source give for `COc1cc(C(=O)Nc2ccc(N3CCCS3(=O)=O)cc2)c([N+](=O)[O-])cc1OC` here?
A: inactive

Q: With `O=C(Nc1ccccc1N1CCOCC1)c1cccs1` as the compound, how does the Potency read?
A: inactive

Q: For `COc1ccc(C2c3ccc4ccccc4c3Oc3ncn(CCO)c(=N)c32)cc1` (stereo not drawn), which Potency is on record?
A: inconclusive: 25.9 µM [activator, single point]

Q: Which Potency does the source give for `CC(=O)N1CCc2c(sc(NC(=O)CCS(=O)(=O)c3ccccc3)c2C#N)C1` here?
A: inconclusive: 20.6 µM [activator, single point]

Q: Which Potency does the source give for `COc1cc(CNCCCN2CCOCC2)cc(Br)c1OCc1ccc(Cl)cc1` here?
A: inactive

Q: With `Cc1ccc(Sc2ncccc2COC(=O)Nc2ccccc2)cc1` as the compound, how does the Potency read?
A: inactive

Q: With `COc1ccc2c(-c3ccccc3)cc(SCC(=O)NC3CCS(=O)(=O)C3)nc2c1` (stereo not drawn) as the compound, how does the Potency read?
A: inactive

Q: For `COc1ccccc1N1CCN(C(=O)C2CCC(CNS(=O)(=O)c3ccc(NC(C)=O)cc3)CC2)CC1` (stereo not drawn), which Potency is on record?
A: inconclusive: 6.51 µM [activator, single point]

Q: Which Potency does the source give for `Cc1noc(C)c1C(=O)Nc1nc(-c2ccc([N+](=O)[O-])cc2)cs1` here?
A: inactive

Q: Which Potency does the source give for `O=C1C(=NO)CCc2ccccc21` here?
A: active: 20.6 µM

Q: With `S=c1[nH]nc(-c2ccncc2)n1/N=C/C(Cl)=C\c1ccccc1` as the compound, how does the Potency read?
A: inactive

Q: Which Potency does the source give for `NNC(=O)CSc1cccc2cccnc12` here?
A: inactive

Q: Which Potency does the source give for `C#CC(=O)N(c1cc(OC)ccc1OC)C(C(=O)NC1CCCC1)c1cccs1` (stereo not drawn) here?
A: active: 0.146 µM

Q: Which Potency does the source give for `COc1ccc(-n2cccc2/C=C/[N+](=O)[O-])cc1` here?
A: active: 23.1 µM

Q: With `COC(=O)C1=C(C)N(Cc2ccccc2)C(=NCCc2cccnc2)N[C@H]1c1ccc(Br)cc1` as the compound, how does the Potency read?
A: inconclusive: 0.0052 µM [activator, full curve, poor fit]

— PubChem BioAssay AID624297 (National Center for Advancing Translational Sciences (NCATS), 2012)
